Assay results from article PMC5001636.
Results are given in words; binding and its absence hold for the method and conditions named. For part of these data: In cells and extracts the contact can be indirect. Some results given as binding are weak or reduced against the parent protein; the word gives no strength. Sequences can lack the tags named with a protein.

Protein sequences, listed by entry. Tags and fused reporters are not part of them.
UniProt P11978: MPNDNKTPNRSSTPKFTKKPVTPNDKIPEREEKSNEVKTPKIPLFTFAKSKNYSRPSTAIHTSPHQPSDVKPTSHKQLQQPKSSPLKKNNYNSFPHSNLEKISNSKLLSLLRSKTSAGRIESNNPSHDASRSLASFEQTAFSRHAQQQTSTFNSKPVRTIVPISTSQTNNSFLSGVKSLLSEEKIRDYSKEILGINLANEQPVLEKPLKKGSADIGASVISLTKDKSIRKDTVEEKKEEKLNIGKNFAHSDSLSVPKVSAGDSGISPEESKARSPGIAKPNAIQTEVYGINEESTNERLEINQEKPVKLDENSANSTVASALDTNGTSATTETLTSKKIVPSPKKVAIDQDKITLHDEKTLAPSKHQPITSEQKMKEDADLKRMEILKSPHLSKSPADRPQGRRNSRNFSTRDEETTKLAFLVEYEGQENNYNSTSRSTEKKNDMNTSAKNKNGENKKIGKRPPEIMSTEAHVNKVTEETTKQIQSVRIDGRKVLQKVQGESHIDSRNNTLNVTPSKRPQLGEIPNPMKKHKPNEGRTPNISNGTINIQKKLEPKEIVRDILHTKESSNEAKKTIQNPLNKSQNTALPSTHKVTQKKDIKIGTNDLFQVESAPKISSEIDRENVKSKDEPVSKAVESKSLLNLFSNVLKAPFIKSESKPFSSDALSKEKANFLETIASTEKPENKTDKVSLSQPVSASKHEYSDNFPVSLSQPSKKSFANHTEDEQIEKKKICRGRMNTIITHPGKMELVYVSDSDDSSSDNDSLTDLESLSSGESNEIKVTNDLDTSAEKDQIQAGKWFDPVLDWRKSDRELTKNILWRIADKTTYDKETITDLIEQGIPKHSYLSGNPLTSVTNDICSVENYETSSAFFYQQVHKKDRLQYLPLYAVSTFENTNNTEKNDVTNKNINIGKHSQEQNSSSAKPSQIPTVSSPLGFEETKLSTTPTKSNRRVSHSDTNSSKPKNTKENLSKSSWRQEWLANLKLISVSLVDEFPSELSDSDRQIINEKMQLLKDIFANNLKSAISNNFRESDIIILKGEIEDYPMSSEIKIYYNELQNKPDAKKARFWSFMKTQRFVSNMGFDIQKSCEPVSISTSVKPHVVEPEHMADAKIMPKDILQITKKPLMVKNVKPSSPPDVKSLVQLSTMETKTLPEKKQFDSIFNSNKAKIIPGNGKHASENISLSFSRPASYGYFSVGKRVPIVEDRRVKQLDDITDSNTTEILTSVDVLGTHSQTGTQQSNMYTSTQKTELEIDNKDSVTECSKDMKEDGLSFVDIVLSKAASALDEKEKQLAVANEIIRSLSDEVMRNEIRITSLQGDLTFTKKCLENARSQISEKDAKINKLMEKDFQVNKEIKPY

Columns and labels:
[1] = target: T1, Smc6^FLAG (S. cerevisiae) (UniProt Q12749); test: co-IP; Smc6^FLAG immunoprecipitated, blot for Sir4^Myc; stationary phase cultures, no chromatin spin, wash buffer with 250 mM NaCl
T1 sequence: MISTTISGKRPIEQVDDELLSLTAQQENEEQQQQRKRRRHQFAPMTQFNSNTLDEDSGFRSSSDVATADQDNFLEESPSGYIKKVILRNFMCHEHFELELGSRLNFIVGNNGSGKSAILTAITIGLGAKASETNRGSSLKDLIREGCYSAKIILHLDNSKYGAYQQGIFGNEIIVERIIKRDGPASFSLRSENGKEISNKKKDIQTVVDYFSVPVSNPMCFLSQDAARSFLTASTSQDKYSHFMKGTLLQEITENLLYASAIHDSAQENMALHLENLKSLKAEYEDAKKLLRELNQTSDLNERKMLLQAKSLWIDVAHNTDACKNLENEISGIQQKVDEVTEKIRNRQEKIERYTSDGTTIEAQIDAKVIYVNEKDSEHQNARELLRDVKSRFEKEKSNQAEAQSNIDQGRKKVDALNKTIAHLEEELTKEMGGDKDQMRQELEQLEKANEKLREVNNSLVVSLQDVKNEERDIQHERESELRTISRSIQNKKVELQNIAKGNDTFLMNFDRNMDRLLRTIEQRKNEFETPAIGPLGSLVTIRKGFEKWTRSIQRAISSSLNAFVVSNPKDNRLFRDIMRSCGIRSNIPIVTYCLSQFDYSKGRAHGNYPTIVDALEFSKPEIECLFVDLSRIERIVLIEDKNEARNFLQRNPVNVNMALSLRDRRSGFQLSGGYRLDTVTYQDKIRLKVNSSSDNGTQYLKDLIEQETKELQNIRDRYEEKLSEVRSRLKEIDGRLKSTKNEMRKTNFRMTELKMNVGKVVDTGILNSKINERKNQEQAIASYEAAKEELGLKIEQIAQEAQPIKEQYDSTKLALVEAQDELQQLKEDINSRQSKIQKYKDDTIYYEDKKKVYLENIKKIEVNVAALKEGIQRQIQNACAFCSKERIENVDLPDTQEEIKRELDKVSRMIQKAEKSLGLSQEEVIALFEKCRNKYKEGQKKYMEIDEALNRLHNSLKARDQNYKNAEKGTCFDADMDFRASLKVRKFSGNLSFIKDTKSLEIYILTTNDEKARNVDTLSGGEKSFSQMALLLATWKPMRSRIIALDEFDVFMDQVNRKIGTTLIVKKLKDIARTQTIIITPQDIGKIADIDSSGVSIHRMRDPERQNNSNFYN

Sir4^Myc (S. cerevisiae) = Sir4^Myc (S. cerevisiae) (UniProt P11978); test: co-IP; Sir4^Myc precipitated with Myc antibody-coupled beads from lysates clarified at 13200 rpm; wash buffer with 250 mM LiCl; blot for Nse3^HA
[2] = target: T2, Nse3^LexA full-length (S. cerevisiae) (UniProt Q05541); test: two-hybrid; LexA bait (pEG202), prey (pJG4-6), LacZ reporter pSH18034 in JC1280; 2% galactose or glucose for 6 hours at 30°C; β-galactosidase activity in permeabilized cells
T2 sequence: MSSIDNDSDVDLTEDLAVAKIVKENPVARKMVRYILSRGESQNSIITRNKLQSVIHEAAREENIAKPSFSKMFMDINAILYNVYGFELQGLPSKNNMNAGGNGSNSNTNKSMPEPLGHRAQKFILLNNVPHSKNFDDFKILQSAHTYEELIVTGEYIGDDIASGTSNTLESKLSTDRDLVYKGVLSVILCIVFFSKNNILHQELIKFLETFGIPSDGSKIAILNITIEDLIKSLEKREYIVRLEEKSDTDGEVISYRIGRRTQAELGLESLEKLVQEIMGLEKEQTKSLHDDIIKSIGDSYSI

## Sir4^Myc (from UniProt P11978 1-1358)
[1]
  binding: binds

B1: Nse3^HA (protein, UniProt Q05541 1-303)
chain: MSSIDNDSDVDLTEDLAVAKIVKENPVARKMVRYILSRGESQNSIITRNKLQSVIHEAAREENIAKPSFSKMFMDINAILYNVYGFELQGLPSKNNMNAGGNGSNSNTNKSMPEPLGHRAQKFILLNNVPHSKNFDDFKILQSAHTYEELIVTGEYIGDDIASGTSNTLESKLSTDRDLVYKGVLSVILCIVFFSKNNILHQELIKFLETFGIPSDGSKIAILNITIEDLIKSLEKREYIVRLEEKSDTDGEVISYRIGRRTQAELGLESLEKLVQEIMGLEKEQTKSLHDDIIKSIGDSYSI
Sir4^Myc (S. cerevisiae)
  binding: binds

B2: Rif2^HA (two-hybrid prey) (protein, UniProt Q06208 1-395)
chain: MEHVDSDFAPIRRSKKVVDSDKIVKAISDDLEQKNFTVLRKLNLVPIKKSVSSPKVCKPSPVKERVDHVFYQKFKSMALQELGTNYLSISYVPSLSKFLSKNLRSMKNCIVFFDKVEHIHQYAGIDRAVSETLSLVDINVVIIEMNDYLMKEGIQSSKSKECIESMGQASYSGQLDFEASEKPSNHTSDLMMMVMRKINNDESIDHIVYFKFEQLDKLSTSTIIEPSKLTEFINVLSVLEKSNNIAFKVLIYSNNVSISSLLSTSLKKKLNTKYTVFEMPILTCAQEQEYLKKMIKFTFDSGSKLLQSYNSLVTCQLNNKESNLAIFFEFLKVFPHPFTYLFNAYTEIIVQSRTFDELLDKIRNRLTIKNYPHSAYNFKKNQRLPLKLTRKVHDR
[2]
  binding: binds
